# Measurements published in PubChem BioAssay AID504848 (National Center for Advancing Translational Sciences (NCATS), 2011).
# The whole screen tested about 2,300 compounds, of which about 1,400 (61%) were called active. The set was probably picked from earlier hits. This list was built around the results that the source calls inconclusive (neither active nor inactive); the mix of calls is not that of the screen. Calls come from the whole dose curve; as a rule, active = well fitted inhibition curve with a large enough effect; inconclusive = small, poorly fitted or top-dose-only effect, or effect the other way; inactive = no such curve, though single readings can be large or run the other way. A potency beside an inconclusive call is a rough fit, not a confirmed value.
# Assay: Confirmation screen for delayed death inhibitors of the malarial parasite plastid, 96 hour incubation; note: nearly all actives have a fitted effect of over 60% in size
# Conditions: P. falciparum luciferase growth in erythrocytes; series mostly up to 28.7 µM
# Source text: The goal of this screen is to discover new antimalarial compounds that act by inhibiting the development of the apicoplast in the malarial parasite Plasmodium falciparum. The biochemical processes that make this organelle essential for erythrocytic stage parasites are not well understood. However, antibiotics, such as azithromycin and tetracycline, which target the apicoplast translational machinery, have a potent antimalarial effect. […] We have developed a cell-based assay that measures parasite growth based on the expression of an integrated copy of a firefly luciferase reporter. To detect small molecules that cause this "delayed death phenotype, erythrocytes infected with the luciferase-expressing parasites were incubated with compounds for either one or two generations, corresponding to 48 and 96 hours, respectively. Compounds that inhibit parasite growth in the second generation, but not the first, should be enriched in antimalarials that target the apicoplast. Growth inhibition is detected by a decrease in luciferase activity. MLPCN Grant: R21 NS059500 Assay Provider: David Fidock and Eric Ekland, Columbia University Keywords: NIH Roadmap, MLPCN, MLI, MLSMR, qHTS, NCGC, qHTS, malaria, luciferase, viability
# Four microliters of culture medium (RPMI 1640 with 0.5% w/v Albumax (GIBCO), 24 mM sodium bicarbonate and 10 ug/mL gentamycin) were dispensed by a Multi-drop Combi into white solid 1536-well plates (Grenier) and 23 nL compound was added by a pin tool. Four microliters of infected erythrocytes (2% hematocrit, 0.1% parasitemia final concentration) in culture medium were dispensed and the plates incubated for 96 hours at 37 C in 5% CO2. Two microliters of luciferase detection reagent was added and luminescence was detected by a ViewLux (PerkinElmer) reader
# Potency is the fitted concentration of half-maximal effect.
row,Compound,Potency
1,CC(C)CNC(=O)C(=O)Nc1cc2c3c(c1)C(C)C(=O)N3CCC2 (centres undefined),active: 14.1 µM
2,CC(C)OCCCNc1ncnc2c1[nH]c1ccc(F)cc12,active: 4.47 µM
3,CCOc1ccccc1OCC(=O)Nc1cccc(S(=O)(=O)N2CCCCCC2)c1,"inconclusive: 14.1 µM [inhibitor, partial curve]"
4,CS(=O)(=O)c1ccc(NCCc2ccc(S(N)(=O)=O)cc2)c([N+](=O)[O-])c1,"inconclusive: 11.2 µM [inhibitor, partial curve]"
5,O=[N+]([O-])c1ccc(CNC2CCCc3ccccc32)cc1 (centres undefined),"inconclusive: 1 µM [inhibitor, full curve, poor fit]"
6,COc1ccc(C(=O)NCC(=O)N/N=C/c2ccc([N+](=O)[O-])s2)cc1OC,active: 6.31 µM
7,Cn1c(=O)[nH]c(=O)c2c1nc(N1CCCCC1)n2CC(O)COc1ccc([N+](=O)[O-])cc1 (centres undefined),"inconclusive: 12.6 µM [inhibitor, partial curve, poor fit]"
8,Cc1ccc(C)n1CCN1CCN(S(=O)(=O)c2ccc(F)cc2F)CC1,"inconclusive: 1.26 µM [inhibitor, partial curve, poor fit]"
9,Cc1ccc2[nH]cc(CCCN3C(=O)c4ccccc4C3=O)c2c1,"inconclusive: 12.6 µM [inhibitor, single point]"
10,Cc1cc(C)cc(NC(=O)C[n+]2ccccc2)c1,"inconclusive: 14.1 µM [inhibitor, single point]"
11,O=C(NCc1cccnc1)c1nc(-c2ccccc2)n(-c2ccccc2)n1,"inconclusive: 17.8 µM [inhibitor, single point]"
12,O=C(/C=C/c1cccc(O)c1)c1cccnc1,"inconclusive: 12.6 µM [inhibitor, partial curve, poor fit]"
13,CCOC(=O)NC(=O)COC(=O)c1ccc(O)cc1,inactive
14,COc1ccc(/C=C/C(=O)c2ccc(C(=O)/C=C/c3ccc(OC)c(OC)c3)cc2)cc1OC,inactive
15,Cc1ccc(NC(=O)c2cccc(NC(=O)/C=C/c3ccco3)c2)cc1C,"inconclusive: 10 µM [inhibitor, partial curve, poor fit]"
16,O=C(/C=C/c1ccccc1Cl)c1ccc(O)cc1,active: 10 µM
17,CSc1ccccc1OCc1cc(C(=O)NCCn2ccnc2C)no1,inactive
18,CCOC(=O)c1ccc(NC(=O)CCn2nnc3ccccc32)cc1,"inconclusive: 12.6 µM [inhibitor, partial curve, poor fit]"
19,Cc1c(CCO)c(=O)[nH]n1C(=O)c1c(F)cccc1F,"inconclusive: 0.158 µM [activator, full curve, poor fit]"

# Some of the entries so far, with bars between the fields:
row | Compound | Potency
15 | Cc1ccc(NC(=O)c2cccc(NC(=O)/C=C/c3ccco3)c2)cc1C | inconclusive: 10 µM [inhibitor, partial curve, poor fit]
17 | CSc1ccccc1OCc1cc(C(=O)NCCn2ccnc2C)no1 | inactive
